According to PMC3931654:
These are yes or no findings as the source states them, for the method shown. Binding seen in cells or lysates may run through a third protein. Some results given as binding are weak or reduced against the parent protein; the word gives no strength.

Target: T1, Themis (thymocyte-expressed molecule involved in selection), endogenous wild type (mouse (endogenous in thymocytes)) (UniProt Q8BGW0)
T1 sequence: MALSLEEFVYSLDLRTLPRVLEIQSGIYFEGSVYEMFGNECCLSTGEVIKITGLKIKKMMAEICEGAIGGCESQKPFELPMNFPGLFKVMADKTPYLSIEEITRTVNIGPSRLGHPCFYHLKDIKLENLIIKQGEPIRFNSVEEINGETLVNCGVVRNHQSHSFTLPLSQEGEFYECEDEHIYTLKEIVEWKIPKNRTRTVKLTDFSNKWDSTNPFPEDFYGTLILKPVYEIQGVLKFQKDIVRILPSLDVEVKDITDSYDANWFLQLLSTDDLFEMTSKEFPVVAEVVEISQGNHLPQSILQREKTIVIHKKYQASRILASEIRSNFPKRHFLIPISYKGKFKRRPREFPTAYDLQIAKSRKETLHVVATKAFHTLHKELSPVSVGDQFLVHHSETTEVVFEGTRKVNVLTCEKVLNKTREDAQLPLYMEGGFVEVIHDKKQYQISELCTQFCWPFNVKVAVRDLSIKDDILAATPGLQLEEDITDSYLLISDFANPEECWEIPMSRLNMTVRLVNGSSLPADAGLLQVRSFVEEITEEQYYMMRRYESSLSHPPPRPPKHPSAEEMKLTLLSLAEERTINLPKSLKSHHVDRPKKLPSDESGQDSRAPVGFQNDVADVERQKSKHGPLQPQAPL
Assay: co-IP; mouse thymocytes, unstimulated or stimulated with anti-CD3 plus anti-CD4 (Fig. S3: also anti-CD8) antibodies; lysis buffer 50 mM Tris-HCl pH 7.5, 150 mM NaCl, 10 mM MgCl2, 0.5% Nonidet P-40; immunoprecipitated with anti-Themis antibody on protein G-sepharose, immunoblot

binding: binds
B1: LAT (protein, UniProt O54957 1-242)
chain: MEADALSPVGLGLLLLPFLVTLLAALCVRCRELPVSYDSTSTESLYPRSILIKPPQITVPRTPAVSYPLVTSFPPLRQPDLLPIPRSPQPLGGSHRMPSSQQNSDDANSVASYENQEPACKNVDADEDEDDYPNGYLVVLPDSSPAAVPVVSSAPVPSNPDLGDSAFSVESCEDYVNVPESEESAEASLDGSREYVNVSPEQQPVTRAELASVNSQEVEDEGEEEGVDGEEAPDYENLQELN
